Measured data: PubChem BioAssay AID1224826 (NIAID, 2016)
Here is a random part of about 17,000 deposited reagents. In the full data, about 1,110 (6.6%) are marked active. 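Active means lowered or raised reporter signal; replicate intensities are raw and not normalised per plate.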 Entries without a mark were called inactive. The numbers tell different reagents against one gene apart. Further read-outs or replicates are left out here. No sequences are given here.

- Test: 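Regulators of Tlr4 signalling leading to Tnf-alpha expression in macrophages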 (primary screen)
- Cell system: RAW264.7 G9 macrophages from mouse bearing reporters for p65 (GFP) and the Tnf promoter (mCherry)
- Knock-down reagent: siRNA pool against mouse genes, 100 nM
- Duration: 16 h of LPS stimulation, after 2 days of siRNA transfection
- Treatment: bacterial lipopolysaccharide (Salmonella minnesota R595), 10 ng/ml
- Detection: 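Imaged Tnf reporter mCherry in nuclei, minus background, normalised per plate to the median and expressed as robust z-scores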
- Direction: Tnf reporter robust z-score: higher = stronger Tnf promoter reporter signal after LPS; Tnf reporter intensity: higher = stronger Tnf promoter reporter signal
- Hit rule: 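Called active when robust z-score is at most -1.3, matching the median of the Tlr4 knock-down control, or over 3; control wells and wells with under 50 cells never active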
- Calls: active = Tnf reporter clearly lowered or raised; inactive = no clear change in Tnf reporter

gene symbol | reagent no. | Tnf reporter robust z-score | fewer than 50 cells in well | Tnf reporter intensity, replicate 1
Glrx5 (glutaredoxin 5) | 1 | – | fewer than 50 cells per well; well left out of calls | 208
Gtf2ird2 (GTF2I repeat domain containing 2) | 1 | 2.14 | enough cells in well | 276
Tprkb (Tp53rk binding protein) | 1 | – | fewer than 50 cells per well; well left out of calls | 173
Cyb5r4 (cytochrome b5 reductase 4) | 1 | -0.05 | enough cells in well | 298
Zfand1 (zinc finger, AN1-type domain 1) | 1 | – | fewer than 50 cells per well; well left out of calls | 78.8
Csrnp3 (cysteine-serine-rich nuclear protein 3) | 1 | – | fewer than 50 cells per well; well left out of calls | 105
Armcx3 (armadillo repeat containing, X-linked 3) | 1 | 0.59 | enough cells in well | 174
Tceal9 (transcription elongation factor A like 9) | 1 | -0.53 | enough cells in well | 98.5
Mydgf (myeloid derived growth factor) | 1 | 1.5 | enough cells in well | 248
Acot10 (acyl-CoA thioesterase 10) | 1 | 1.8 | enough cells in well | 340
Dynlt2a1 (dynein light chain Tctex-type 2A1) | 1 | 0.79 | enough cells in well | 137
Kcnn2 | 1 | 1.86 | enough cells in well | 321
Bhlha9 (basic helix-loop-helix family, member a9) | 1 | -0.58 | enough cells in well | 132
Bckdk (branched chain ketoacid dehydrogenase kinase) | 1 | -0.83 | enough cells in well | 124
Rad21 (RAD21 cohesin complex component) | 1 | -0.46 | enough cells in well | 282
Or5aq7 (olfactory receptor family 5 subfamily AQ member 7) | 1 | -1.06 | enough cells in well | 144
Mmd (monocyte to macrophage differentiation-associated) | 1 | 1.69 | enough cells in well | 314
B230317F23Rik (RIKEN cDNA B230317F23 gene) | 1 | -0.85 | enough cells in well | 118
Sycp3 (synaptonemal complex protein 3) | 1 | 2.27 | enough cells in well | 194
Cyp2s1 (cytochrome P450, family 2, subfamily s, polypeptide 1) | 1 | 1.23 | enough cells in well | 277
Pdlim7 (PDZ and LIM domain 7) | 1 | -0.56 | enough cells in well | 104
Pgr (progesterone receptor) | 1 | -0.53 | enough cells in well | 212
Rpl6 (ribosomal protein L6) | 1 | – | fewer than 50 cells per well; well left out of calls | 51.9
AY036118 (cDNA sequence AY036118) | 1 | 0.97 | enough cells in well | 235
Furin (furin, paired basic amino acid cleaving enzyme) | 1 | -0.64 | enough cells in well | 219
Dnah11 (dynein, axonemal, heavy chain 11) | 1 | -0.33 | enough cells in well | 179
Angpt1 (angiopoietin 1) | 1 | 1.47 | enough cells in well | 219
Catsper2 (cation channel, sperm associated 2) | 1 | -0.9 | enough cells in well | 172
Galntl5 | 1 | -0.63 | enough cells in well | 187
Or5b124 (olfactory receptor family 5 subfamily B member 124) | 1 | 1.06 | enough cells in well | 230
Pigh (phosphatidylinositol glycan anchor biosynthesis, class H) | 1 | -0.69 | enough cells in well | 165
Zc3h6 (zinc finger CCCH type containing 6) | 1 | – | fewer than 50 cells per well; well left out of calls | 127
Zc3h6 (zinc finger CCCH type containing 6) | 2 | – | fewer than 50 cells per well; well left out of calls | 187
Msi1 (musashi RNA-binding protein 1) | 1 | 1.18 | enough cells in well | 230
Or2aj5 (olfactory receptor family 2 subfamily AJ member 5) | 1 | 0.91 | enough cells in well | 227
Calcoco1 (calcium binding and coiled coil domain 1) | 1 | – | fewer than 50 cells per well; well left out of calls | 254
Or4f60 (olfactory receptor family 4 subfamily F member 60) | 1 | -0.36 | enough cells in well | 190
Ino80b (INO80 complex subunit B) | 1 | -0.43 | enough cells in well | 177
Nap1l1 (nucleosome assembly protein 1-like 1) | 1 | 0.32 | enough cells in well | 159
Adissp (adipose secreted signaling protein) | 1 | 1.85 | enough cells in well | 342
Il17f (interleukin 17F) | 1 | -0.69 | enough cells in well | 153
Efna1 (ephrin A1) | 1 | 0.18 | enough cells in well | 271
Dhx9 (DExH-box helicase 9) | 1 | 0.28 | enough cells in well | 208
Sec23b (SEC23 homolog B, COPII coat complex component) | 1 | 3.67 (active) | enough cells in well | 207
Hat1 (histone aminotransferase 1) | 1 | 0.98 | enough cells in well | 299
Cspp1 (centrosome and spindle pole associated protein 1) | 1 | -0.19 | enough cells in well | 195
Stard4 (StAR related lipid transfer domain containing 4) | 1 | 2.3 | enough cells in well | 189
Gjb2 (gap junction protein, beta 2) | 1 | -0.68 | enough cells in well | 241
Rfxap (regulatory factor X-associated protein) | 1 | -0.88 | enough cells in well | 211
C730034F03Rik (RIKEN cDNA C730034F03 gene) | 1 | 2.68 | enough cells in well | 306
Jak1 (Janus kinase 1) | 1 | 0.57 | enough cells in well | 249
Cd79b (CD79B antigen) | 1 | 0.61 | enough cells in well | 285
Alg9 (ALG9 alpha-1,2-mannosyltransferase) | 1 | 4.37 (active) | enough cells in well | 428
Aamdc (adipogenesis associated Mth938 domain containing) | 1 | 1.09 | enough cells in well | 298
1700052K11Rik (RIKEN cDNA 1700052K11 gene) | 1 | 4.77 (active) | enough cells in well | 544
Vmn2r10 (vomeronasal 2, receptor 10) | 1 | -0.43 | enough cells in well | 118
Helt (helt bHLH transcription factor) | 1 | 0.93 | enough cells in well | 352
Trim11 (tripartite motif-containing 11) | 1 | – | fewer than 50 cells per well; well left out of calls | 60.3

Already shown: an excerpt of the list.
gene symbol | reagent no. | Tnf reporter robust z-score | fewer than 50 cells in well | Tnf reporter intensity, replicate 1
Furin (furin, paired basic amino acid cleaving enzyme) | 1 | -0.64 | enough cells in well | 219
Dnah11 (dynein, axonemal, heavy chain 11) | 1 | -0.33 | enough cells in well | 179
Angpt1 (angiopoietin 1) | 1 | 1.47 | enough cells in well | 219
Catsper2 (cation channel, sperm associated 2) | 1 | -0.9 | enough cells in well | 172
Galntl5 | 1 | -0.63 | enough cells in well | 187
Or5b124 (olfactory receptor family 5 subfamily B member 124) | 1 | 1.06 | enough cells in well | 230
Pigh (phosphatidylinositol glycan anchor biosynthesis, class H) | 1 | -0.69 | enough cells in well | 165
